Measured values: publication PMC7862700
The list shows a part of the results, in another mix than the full data. At the low end of the ranking, values are background and their order means little.

Amino acid sequences for entries named in this document (tags omitted). A change or cut given only in a name is not applied to a line headed by its entry.
UniProt Q01892: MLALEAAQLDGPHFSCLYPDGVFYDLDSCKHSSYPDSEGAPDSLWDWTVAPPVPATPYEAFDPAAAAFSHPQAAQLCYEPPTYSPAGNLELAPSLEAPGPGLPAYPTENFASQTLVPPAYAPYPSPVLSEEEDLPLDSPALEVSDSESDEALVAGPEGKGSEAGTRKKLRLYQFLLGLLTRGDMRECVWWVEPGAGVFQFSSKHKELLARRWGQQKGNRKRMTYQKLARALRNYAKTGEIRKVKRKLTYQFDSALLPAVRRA
UniProt P41161: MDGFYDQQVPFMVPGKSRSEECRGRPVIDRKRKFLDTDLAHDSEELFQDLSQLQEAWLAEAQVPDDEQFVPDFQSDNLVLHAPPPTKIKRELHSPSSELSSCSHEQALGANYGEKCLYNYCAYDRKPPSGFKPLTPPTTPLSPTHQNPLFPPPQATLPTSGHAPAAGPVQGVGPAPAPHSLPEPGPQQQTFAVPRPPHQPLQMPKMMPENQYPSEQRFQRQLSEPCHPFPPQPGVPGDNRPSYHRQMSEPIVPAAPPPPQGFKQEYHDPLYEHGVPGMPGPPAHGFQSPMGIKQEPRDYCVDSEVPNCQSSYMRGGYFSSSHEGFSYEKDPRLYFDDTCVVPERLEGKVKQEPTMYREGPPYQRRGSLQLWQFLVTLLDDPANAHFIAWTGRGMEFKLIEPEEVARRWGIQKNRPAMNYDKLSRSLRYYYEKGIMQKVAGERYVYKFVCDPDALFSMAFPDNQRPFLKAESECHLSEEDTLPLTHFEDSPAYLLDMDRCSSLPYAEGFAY

Key:
Assay in all cases: DAPPL (digital affinity profiling via proximity ligation, sequencing)
Conditions in all cases: 10 mM Tris-HCl pH 7.5, 50 mM NaCl, 1 mM DTT, 4% glycerol, room temperature, 30 min; GST-TFs on glutathione beads, 16-mer random dsDNA library, 0.1% …; high values mean tight binding; double strand, one strand shown; scale: fold enrichment (6-mer frequency, TF over GST control)
[1] = biological target: T1, FLI1 (UniProt Q01543)
T1 sequence: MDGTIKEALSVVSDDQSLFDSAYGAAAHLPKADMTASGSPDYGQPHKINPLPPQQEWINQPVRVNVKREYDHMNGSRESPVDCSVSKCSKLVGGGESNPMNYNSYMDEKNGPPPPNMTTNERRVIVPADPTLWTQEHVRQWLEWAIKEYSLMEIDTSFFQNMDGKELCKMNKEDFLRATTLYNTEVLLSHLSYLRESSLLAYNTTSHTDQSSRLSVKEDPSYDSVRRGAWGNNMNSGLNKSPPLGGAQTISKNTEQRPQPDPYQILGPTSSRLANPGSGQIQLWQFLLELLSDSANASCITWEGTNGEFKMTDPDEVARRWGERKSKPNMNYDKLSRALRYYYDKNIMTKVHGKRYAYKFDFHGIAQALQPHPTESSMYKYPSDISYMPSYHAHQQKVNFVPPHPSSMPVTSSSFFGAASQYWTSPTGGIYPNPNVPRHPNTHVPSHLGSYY

[2] = biological target: SPIB (UniProt Q01892)
[3] = biological target: ETV5 (UniProt P41161)
[4] = biological target: T2, ETV2 (UniProt O00321)
T2 sequence: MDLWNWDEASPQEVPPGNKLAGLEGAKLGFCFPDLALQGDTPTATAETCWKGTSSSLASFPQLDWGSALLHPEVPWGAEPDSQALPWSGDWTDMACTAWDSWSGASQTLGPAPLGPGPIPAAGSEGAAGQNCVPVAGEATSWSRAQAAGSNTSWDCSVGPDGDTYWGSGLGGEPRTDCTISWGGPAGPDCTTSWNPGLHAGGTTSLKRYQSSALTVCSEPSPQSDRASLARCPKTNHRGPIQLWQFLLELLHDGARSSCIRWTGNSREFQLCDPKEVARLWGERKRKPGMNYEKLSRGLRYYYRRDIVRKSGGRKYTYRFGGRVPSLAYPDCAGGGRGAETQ

[5] = biological target: T3, ETV3L (UniProt Q6ZN32)
T3 sequence: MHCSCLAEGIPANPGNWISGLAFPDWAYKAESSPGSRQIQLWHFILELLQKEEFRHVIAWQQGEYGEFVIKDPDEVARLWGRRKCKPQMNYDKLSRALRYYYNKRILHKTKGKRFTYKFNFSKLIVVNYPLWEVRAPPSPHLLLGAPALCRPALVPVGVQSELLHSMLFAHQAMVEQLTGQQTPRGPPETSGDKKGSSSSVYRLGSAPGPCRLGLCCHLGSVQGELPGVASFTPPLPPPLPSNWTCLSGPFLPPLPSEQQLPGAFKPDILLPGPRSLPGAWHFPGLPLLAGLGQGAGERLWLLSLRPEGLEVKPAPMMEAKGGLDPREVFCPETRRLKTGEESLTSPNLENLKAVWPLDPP

[6] = biological target: T4, EHF (UniProt Q9NZC4)
T4 sequence: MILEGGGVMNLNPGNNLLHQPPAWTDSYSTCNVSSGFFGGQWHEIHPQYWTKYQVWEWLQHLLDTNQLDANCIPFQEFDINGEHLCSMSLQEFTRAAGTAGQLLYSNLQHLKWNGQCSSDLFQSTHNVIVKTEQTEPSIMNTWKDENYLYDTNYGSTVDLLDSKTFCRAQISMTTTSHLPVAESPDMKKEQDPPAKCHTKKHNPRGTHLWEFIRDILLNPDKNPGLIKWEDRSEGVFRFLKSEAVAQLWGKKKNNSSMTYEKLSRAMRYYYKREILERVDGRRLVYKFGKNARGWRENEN

Row | Sequence | binding signal [1] | binding signal [2] | binding signal [3] | binding signal [4] | binding signal [5] | binding signal [6]
1 | TAGCGT | 0.929 | 0.922 | 1.03 | 0.97 | 0.919 | 
2 | CCAATA | 1.24 |  | 1.29 | 1.09 |  | 1.25
3 | TGTATT | 1.38 | 1.28 | 1.33 | 1.32 |  | 1.34
4 | GACTAT | 0.86 | 0.99 | 0.849 | 0.981 |  | 0.914
5 | CCCTGC | 1.11 | 1.16 | 1.18 | 1.05 |  | 
6 | AATGTG | 1.04 | 1 | 0.988 | 0.969 | 0.99 | 0.954
7 | ATGCGA | 1.18 |  | 1.17 | 1.34 |  | 1.23
8 | ATCGCG | 0.927 | 0.92 | 0.887 | 0.962 | 0.938 | 0.922
9 | TATTGC | 1.39 | 1.37 | 1.34 | 1.22 |  | 
10 | TCCGCA | 2.2 |  | 2.24 |  | 2.08 | 
11 | ATTGTG | 0.892 | 0.884 | 0.864 | 0.971 | 0.941 | 0.812
12 | CTCCAC | 1.56 |  | 1.42 |  | 1.45 | 
13 | GCAACA | 0.986 | 0.991 | 0.995 | 1.03 | 0.963 | 0.984
14 | CGCCAC | 0.892 | 0.961 | 0.956 | 0.914 |  | 0.911
15 | GTAACC | 1.04 | 1.1 | 1.05 |  | 0.984 | 1.11
16 | TATCCC | 1.63 |  | 1.64 |  |  | 1.52

Row | Sequence | binding signal [1] | binding signal [2] | binding signal [3] | binding signal [4] | binding signal [5] | binding signal [6]
17 | CGCACC | 0.988 | 0.907 | 0.963 |  | 0.947 | 0.977
18 | GAAGCC | 0.974 | 0.992 | 1.07 |  | 0.997 | 0.974
19 | TGTCCT | 1.37 |  | 1.56 |  | 1.58 | 1.52
20 | CTAACT | 1.36 |  | 1.34 |  |  | 1.25
21 | CCCTCA | 1.28 | 1.25 | 1.18 |  | 1.18 | 
22 | GTTAGC | 0.933 |  | 0.946 |  | 0.871 | 0.953
23 | CTACCA | 1.27 | 1.23 | 1.2 |  |  | 1.22
24 | TTTGTA | 1.64 |  | 1.64 |  | 1.69 | 
25 | TTCTGT | 1.26 | 1.22 | 1.26 |  | 1.42 | 
26 | TTTGAT | 1.37 |  | 1.23 |  | 1.28 | 1.25
27 | AAAGGC | 0.946 | 0.927 | 0.958 |  | 0.967 | 0.983
28 | TACGGT | 1.01 | 1.02 | 1.04 |  | 0.981 | 0.975
29 | CCACAA | 1.2 |  | 1.19 |  |  | 1.08
30 | GATTCG | 0.99 |  | 0.91 |  |  | 0.962
31 | TTAGCC | 0.972 |  | 0.932 |  | 0.959 | 1.03
32 | TGGATC | 0.957 | 0.92 | 0.98 |  | 1.12 | 

Part of the list above, limited to binding signal [6], binding signal [2] and binding signal [3].

| Row | Sequence | binding signal [6] | binding signal [2] | binding signal [3] |
| --- | --- | --- | --- | --- |
| 13 | GCAACA | 0.984 | 0.991 | 0.995 |
| 14 | CGCCAC | 0.911 | 0.961 | 0.956 |
